Literature values in patent publication US20060063755A1, “Loxapine analogs and methods of use thereof” (priority 2004, published 2006).
pKi: −log10 of the molar value. Some results were stated once for a whole list of compounds, not compound by compound.

Protein sequences, listed by entry. Tags and fused reporters are not part of them.
UniProt P30546, whole entry: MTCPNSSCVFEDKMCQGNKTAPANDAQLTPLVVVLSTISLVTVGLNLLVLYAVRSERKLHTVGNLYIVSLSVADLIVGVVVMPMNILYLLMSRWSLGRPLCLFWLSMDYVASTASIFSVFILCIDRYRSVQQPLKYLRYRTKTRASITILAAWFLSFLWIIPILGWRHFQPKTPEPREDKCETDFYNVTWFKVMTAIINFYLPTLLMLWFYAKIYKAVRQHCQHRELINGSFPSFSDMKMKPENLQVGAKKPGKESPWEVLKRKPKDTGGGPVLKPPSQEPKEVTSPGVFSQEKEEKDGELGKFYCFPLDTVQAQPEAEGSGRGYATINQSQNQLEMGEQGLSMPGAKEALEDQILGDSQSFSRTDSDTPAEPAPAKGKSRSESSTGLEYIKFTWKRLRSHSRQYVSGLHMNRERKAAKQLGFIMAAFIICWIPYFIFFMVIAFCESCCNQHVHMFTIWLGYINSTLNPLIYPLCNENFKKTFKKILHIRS

Target: T1, H1 histamine receptor (Bos taurus, UniProt P30546)
T1 construct: the receptors were obtained from bovine cerebellar membrane tissue; from tissue; host or cells: bovine cerebellar membranes
Settings: reference compounds; read-out: Ki of reference compounds, H1 binding assay (unit inferred); cited from earlier work

In the case of `CN(C)CCCSC(=N)N` [dimaprit], the pKi is given as under 5.00.
